These results are taken from article PMC7819943, “Rice protein-binding microarrays: a tool to detect cis-acting elements near promoter regions in rice”.

By UniProt entry, the sequences of proteins in these tests, tags left out.
UniProt Q0JBA9, entry or part of it: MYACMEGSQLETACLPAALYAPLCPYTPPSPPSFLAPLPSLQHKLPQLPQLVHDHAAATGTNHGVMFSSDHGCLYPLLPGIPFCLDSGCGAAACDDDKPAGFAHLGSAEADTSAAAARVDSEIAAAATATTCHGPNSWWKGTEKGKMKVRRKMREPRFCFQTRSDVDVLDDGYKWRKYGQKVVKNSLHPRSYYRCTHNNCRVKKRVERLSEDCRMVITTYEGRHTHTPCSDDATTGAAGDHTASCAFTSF

The list shows a part of the results.

For this assay, the target named is OsWRKY34 (Oryza sativa, UniProt Q0JBA9 1-250). As to the kind of experiment: protein-binding microarray (RPBM); PBS, 2% BSA, 51.3 ng/ul salmon testes DNA, 50 uM zinc acetate, 200 nM TF, 25 C, 1 h; high values mean tight binding. Particulars: protein: recombinant; tags: N-terminal polyhistidine and DsRed monomer fusion (pET32a); label: CyDye5-dUTP incorporated in the synthesized complementary strand; 3' TTTTT single-stranded linker to array surface; dsDNA, one strand shown. An outline of the steps:
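A custom Agilent array was converted to double-stranded form by primer extension with Cy5-dUTP and blocked with 2% BSA. Protein at 200 nM in PBS with 2% BSA, salmon testes DNA and 50 µM zinc acetate was applied for 1 h at 25 °C, followed by washing. The proteins were polyhistidine–DsRed N-terminal fusions of transcription factors, expressed in E. coli BL21-CodonPlus and Ni–NTA-purified. The binding signal is per-feature fluorescence intensity (arbitrary units) from an Axon 4000B scanner.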
Consider “GGATTAGGTGAACTTTCAGGGGTACACAGGGGTTTTCTTTCGGAGTCACCTAGTGCAG”, for which the binding signal is 13200 fluorescence intensity (a.u.).

For the sequence “CCCCGTCCCGTACACGTCTATCCAAATGGCCACGTTAATCCGGAGTCACCTAGTGCAG”, the binding signal is 8020 fluorescence intensity (a.u.).

With “AGGTGGTGGTGGTGGGGAAGGAATTAATCGATCGATCGAGCGGAGTCACCTAGTGCAG”, the binding signal was 13000 fluorescence intensity (a.u.).

Take “CCTGTGCGTGGTCGGGTTAATTTGTCAGTCTGTCACTTACCGGAGTCACCTAGTGCAG”: the binding signal was 10200 fluorescence intensity (a.u.).

With “TTTAGCCTATTTGGTCTTCATCTGCAAGTCTTATGTTCTGCGGAGTCACCTAGTGCAG”, the binding signal is 9850 fluorescence intensity (a.u.).

For the sequence “CGGATTCGGTCATATTTTTTCGCAAACCGCCACTACCCCACGGAGTCACCTAGTGCAG”, the binding signal was 11200 fluorescence intensity (a.u.).

As to “GAGAAACACTCACACACCAGCACACGGCGACCTCATCGGCCGGAGTCACCTAGTGCAG”, the binding signal was 8930 fluorescence intensity (a.u.).

With “ACTGCTTGCCGCCTCCATCGCCCATTGTTCCCGCCGCCGCCGGAGTCACCTAGTGCAG”, the binding signal was 8090 fluorescence intensity (a.u.).

As for “TTTCCGTGTGTGTGATGAGATTTTTTTTCCTTATCTGCTTCGGAGTCACCTAGTGCAG”, the binding signal was 9600 fluorescence intensity (a.u.).

With “CCCATCGCCCCACACATCTCCCACCAAACCACCCACCCCACGGAGTCACCTAGTGCAG”, the binding signal is 9190 fluorescence intensity (a.u.).

Regarding “ATTGTTTTTTGCGCAAGCTGCTTCCTCCTTTGAGGAAACCCGGAGTCACCTAGTGCAG”, the binding signal was 8690 fluorescence intensity (a.u.).

For the sequence “CCCGTTTCTCCCTCGCGCCGCCTCGCCGCGGCCGAAATCTCGGAGTCACCTAGTGCAG”, the binding signal is 10700 fluorescence intensity (a.u.).

With “ATTCTTGCGGTGGTTCACAGTTGCATCAGGTTTTTAATTGCGGAGTCACCTAGTGCAG”, the binding signal was 8480 fluorescence intensity (a.u.).

Regarding “TGTGCAGTGACAAGAAATTTCCTTGCGTCTCTTTGTTTCACGGAGTCACCTAGTGCAG”, the binding signal was 9060 fluorescence intensity (a.u.).

Take “ACCGCTTGTGTATTCTGTCATTCTGAATAACATTGTAATACGGAGTCACCTAGTGCAG”: the binding signal is 8320 fluorescence intensity (a.u.).

“ACCGTTGATTTTTTTAAACATGTTTGACCGTTCGTCTTATCGGAGTCACCTAGTGCAG”: the binding signal was 17100 fluorescence intensity (a.u.).

As to “ACAATCCTCATATGTCTATTTTACCACACTCAACCTTTACCGGAGTCACCTAGTGCAG”, the binding signal is 10000 fluorescence intensity (a.u.).

Consider “CTCTGTATGTCGGTATTTTATTTCTAAGTATTCAATTGTTCGGAGTCACCTAGTGCAG”, for which the binding signal was 11100 fluorescence intensity (a.u.).

In the case of “CCTACGCGAGCGCGGGCGGGTGGGTTTGTGGGTTATGTTTCGGAGTCACCTAGTGCAG”, the binding signal was 12800 fluorescence intensity (a.u.).

Consider “CGGGTTGGGGAAAAAGCGAGCTGCCGCTTCTGGGTTTTGACGGAGTCACCTAGTGCAG”, for which the binding signal is 10600 fluorescence intensity (a.u.).

As to “CCCTCGTCTCCCGCGCCTGCCACGCCGCCGAGTCGCGCCACGGAGTCACCTAGTGCAG”, the binding signal was 8660 fluorescence intensity (a.u.).

On to “CGCCTCACTCCGCCTCATCACCCGAGGCGCCCCAATCTCCCGGAGTCACCTAGTGCAG”, for which the binding signal was 8220 fluorescence intensity (a.u.).

For “GCGCGAGCCATTATCTTACGTCACGGCCCAAACGCCGAGGCGGAGTCACCTAGTGCAG”, the binding signal was 8950 fluorescence intensity (a.u.).

In the case of “GCATATCAACGTTAATTACTGCCGATTTGACTGTTGATTACGGAGTCACCTAGTGCAG”, the binding signal is 9470 fluorescence intensity (a.u.).

For “ACTCTATACTTACTTCTAATATTCCTTATTTTTAATTCCACGGAGTCACCTAGTGCAG”, the binding signal was 9050 fluorescence intensity (a.u.).

For “CTCGTCCTTGTTCGTCATCGCGCTCGCTCGATTTCTCCTCCGGAGTCACCTAGTGCAG”, the binding signal is 8560 fluorescence intensity (a.u.).

Regarding “ACATACTAGTGCAGAAAACTTTTGCAAATACTCTATTTTTCGGAGTCACCTAGTGCAG”, the binding signal is 8760 fluorescence intensity (a.u.).

For the sequence “ACTTGTTGATTTATATACCCTTGCTGTCTATGTGAATTTCCGGAGTCACCTAGTGCAG”, the binding signal was 10600 fluorescence intensity (a.u.).

Take “CGTCAAGTTGTTGGTAGCATCGTTGTTCGTCGTCCCGTCCCGGAGTCACCTAGTGCAG”: the binding signal was 8600 fluorescence intensity (a.u.).

In the case of “CCTTATCTCGTTAGTGCCATCCTCTCATCGCCGCGGTTTCCGGAGTCACCTAGTGCAG”, the binding signal is 10100 fluorescence intensity (a.u.).

With “ACCCTAGCACACAGCTCCTGTTGTTTCACGTCCCACTCGTCGGAGTCACCTAGTGCAG”, the binding signal is 10600 fluorescence intensity (a.u.).

In the case of “GTGAGAAAAAGTCAACGGTGTCATCTATTAAAAAATGGAGCGGAGTCACCTAGTGCAG”, the binding signal is 13800 fluorescence intensity (a.u.).

Regarding “ACATTCTATATCCTTTGTCTCAAAACAGGCTAGTATTTCACGGAGTCACCTAGTGCAG”, the binding signal is 11200 fluorescence intensity (a.u.).

With “AAATTTTTTTTTTACCTATACATATCACATATATATCACACGGAGTCACCTAGTGCAG”, the binding signal was 8280 fluorescence intensity (a.u.).

For “CTGCCACACCCACCCACCCGAGACGGACACCGCCGCGAACCGGAGTCACCTAGTGCAG”, the binding signal was 9810 fluorescence intensity (a.u.).

Turning to “CACACTAAGTCAGCTGTCATGTTGGATAAACCCGAAGTTACGGAGTCACCTAGTGCAG”, the binding signal is 8920 fluorescence intensity (a.u.).

On to “GCTGACCTACACGTTGCTCCTTCTCATGCTCCTTCTATTTCGGAGTCACCTAGTGCAG”, for which the binding signal was 11800 fluorescence intensity (a.u.).

With “CTCCGATCCGAGCTCCAGATCTGCGGCGCCGGCGACCAACCGGAGTCACCTAGTGCAG”, the binding signal was 8990 fluorescence intensity (a.u.).

Regarding “AGCCGTATCCACCCAGTTGTACATGTGTCCTAGTTGAGAGCGGAGTCACCTAGTGCAG”, the binding signal was 11400 fluorescence intensity (a.u.).

Turning to “TTGAGTTGACGCGAATTGACCCTCATGACCTACCGCCATCCGGAGTCACCTAGTGCAG”, the binding signal was 8270 fluorescence intensity (a.u.).

“GTGTTTTCTCGATATCGATATTTTGAGTCTGTTTGACACACGGAGTCACCTAGTGCAG”: the binding signal was 8760 fluorescence intensity (a.u.).

For “CTGTGTCTGTCTCACCTTTGTGTTCAACTATCAGCCCGGACGGAGTCACCTAGTGCAG”, the binding signal is 8780 fluorescence intensity (a.u.).
